Data published in US20250075147A1, “FRAGRANCE AND FLAVOR COMPOSITIONS COMPRISING NEW FLAVOR AND FRAGRANCE INGREDIENTS” (priority 2023, published 2025).

Assays:
odor evaluation panel = assay: Odor evaluation panel rating of odorants by Rate-All-That-Apply (RATA) method with 55-word odor lexicon, plus intensity and pleasantness; design: species or system human; settings: for Floral: mean panelist score for odor label floral (RATA); for Fruity: mean panelist score for odor label fruity (RATA); for Spicy: mean panelist score for odor label spicy (RATA); for Sweet: mean panelist score for odor label sweet (RATA); for Pleasantness: mean panelist score for odor pleasantness
[1] = Evaluation by trained and/or certified flavor or fragrance chemists or master perfumers; categorization by commercial prospect; settings: evaluation by trained flavor or fragrance chemists or master perfumers

| Compound | Floral (odor evaluation panel) | Fruity (odor evaluation panel) | Spicy (odor evaluation panel) | Sweet (odor evaluation panel) | Rating (category of commercial prospect) [1] | Pleasantness (odor evaluation panel) |
| --- | --- | --- | --- | --- | --- | --- |
| CCC(=O)CC(=O)OC [Compound 822, methyl 3-oxopentanoate] | 0.222 | 0.417 | 0.194 | 1.222 | (D) | – |
| COC1=NCCCCC1 [Compound 827, 7-methoxy-3,4,5,6-tetrahydro-2H-azepine] | 0.118 | 0.118 | 0.059 | 0.118 | (D) | 4.985 |
| Cc1cc2ccccc2n1C [Compound 829, 1,2-dimethylindole] | 0 | 0 | 0.032 | 0.032 | (C) | 2.903 |
| CCOC(=O)[C@H](O)c1ccccc1 [Compound 832, ethyl (2R)-2-hydroxy-2-phenylacetate] | 0.219 | 0.5 | 0 | 0.312 | (D) | 5.166 |
| CCCCOCCOCCOCCCC [Compound 834, 1-[2-(2-butoxyethoxy)ethoxy]butane] | 0.444 | 0.806 | 0 | 0.556 | (D) | – |
| CN(c1ccccc1)c1ccccc1 [Compound 847, N-methyl-N-phenylaniline] | 0.278 | 0.139 | 0.25 | 0.278 | (D) | – |
| CCOC(=O)CCN1CCCCC1 [Compound 848, ethyl 3-piperidin-1-ylpropanoate] | 0.056 | 0 | 0.167 | 0 | (D) | – |
| CC1(C)CCCC(C)(C)N1[O] [Compound 854, 2,2,6,6-tetramethyl-1-piperidinyloxy radical] | 0.056 | 0 | 0 | 0.306 | (C) | – |
| CCCCCCCCCCS [Compound 861, decane-1-thiol] | 0.222 | 0 | 0.056 | 0.139 | (B) | – |
| CCOC(=O)Cc1ccc(OCC)cc1 [Compound 864, ethyl 2-(4-ethoxyphenyl)acetate] | 1.438 | 0.188 | 0.406 | 1.312 | (C) | 5.975 |
| CSC(=C[N+](=O)[O-])SC [Compound 868, 1,1-bis(methylsulfanyl)-2-nitroethene] | 0 | 0 | 0.056 | 0 | (D) | – |
| CCN(CCO)c1cccc(C)c1 [Compound 875, 2-(N-ethyl-3-methylanilino)ethanol] | 0.533 | 0.433 | 0 | 0.867 | (D) | 5.147 |
| N#Cc1cccs1 [Compound 876, thiophene-2-carbonitrile] | 0.097 | 1.097 | 2.065 | 1.903 | (A) | 5.848 |
| CCCN1CCC(=O)CC1 [Compound 877, 1-propylpiperidin-4-one] | 0.029 | 0.086 | 0.029 | 0.029 | (C) | 2.966 |
| O=C1CCCN1C1CCCCC1 [Compound 879, 1-cyclohexylpyrrolidin-2-one] | 0 | 0 | 0.286 | 0.143 | (D) | 3.623 |
| CCC(O)COC (centres unmarked) [Compound 881, 1-methoxybutan-2-ol] | 0.206 | 0.382 | 0.324 | 0.647 | (D) | 4.944 |
| O=C(O)C#Cc1ccccc1 [Compound 882, 3-phenylprop-2-ynoic acid] | 0.229 | 0.914 | 0.029 | 0.8 | (C) | 5.109 |
| O=C1CCc2cc(O)ccc21 [Compound 887, 5-hydroxy-2,3-dihydroinden-1-one] | 0.056 | 0 | 0 | 0.139 | (D) | – |
| CCc1nnc(N)s1 [Compound 889, 5-ethyl-1,3,4-thiadiazol-2-amine] | 0.156 | 0.281 | 0.344 | 0.312 | (D) | 3.534 |
| Cc1cc(C)cc(C(C)(C)C)c1 [Compound 896, 1-tert-butyl-3,5-dimethylbenzene] | 0 | 0 | 0.194 | 0.194 | (D) | – |
| Cc1ccncc1C [Compound 897, 3,4-dimethylpyridine] | 0.167 | 0.8 | 0.233 | 1.333 | (D) | 5.26 |
| CC(C)(C)SC(C)(C)C [Compound 898, 2-tert-butylsulfany1-2-methylpropane] | 0.194 | 0.167 | 0.167 | 0.194 | (D) | – |
| C=Cc1ccc(OC(C)=O)cc1 [Compound 900, (4-ethenylphenyl) acetate] | 0.156 | 0.125 | 0.781 | 1.062 | (B) | 4.419 |
| CCCCOC(=O)C1=CC(=O)CC(C)(C)O1 [Compound 901, butyl 2,2-dimethyl-4-oxo-3H-pyran-6-carboxylate] | 0 | 0.219 | 0.094 | 1.281 | (B) | 5.931 |
| CC1CCCC(C)C1O (centres unmarked) [Compound 905, 2,6-dimethylcyclohexan-1-ol] | 0.062 | 0 | 0.094 | 0.344 | (C) | 4.206 |
| COc1ccc2nc(C)ccc2c1 [Compound 906, 6-methoxy-2-methylquinoline] | 0.367 | 0.7 | 0.167 | 1.4 | (D) | 4.68 |
| CCOc1cnccn1 [Compound 913, 2-ethoxypyrazine] | 0 | 0 | 0.545 | 0.515 | (D) | 6.109 |
